Data taken from article PMC4928127, “Determination of GLUT1 Oligomerization Parameters using Bioluminescent Förster Resonance Energy Transfer” (Scientific Reports, 2016).
No constants are given. Whether binding was seen depends on the method and setting. In cells and extracts the contact can be indirect. Some results given as binding are weak or reduced against the parent protein; the word gives no strength. Where a sequence is shown, tags or fusion partners need not be part of it.

T1: mCherry-GLUT1-Nluc dual fusion protein (mouse) (UniProt P17809)
T1 sequence: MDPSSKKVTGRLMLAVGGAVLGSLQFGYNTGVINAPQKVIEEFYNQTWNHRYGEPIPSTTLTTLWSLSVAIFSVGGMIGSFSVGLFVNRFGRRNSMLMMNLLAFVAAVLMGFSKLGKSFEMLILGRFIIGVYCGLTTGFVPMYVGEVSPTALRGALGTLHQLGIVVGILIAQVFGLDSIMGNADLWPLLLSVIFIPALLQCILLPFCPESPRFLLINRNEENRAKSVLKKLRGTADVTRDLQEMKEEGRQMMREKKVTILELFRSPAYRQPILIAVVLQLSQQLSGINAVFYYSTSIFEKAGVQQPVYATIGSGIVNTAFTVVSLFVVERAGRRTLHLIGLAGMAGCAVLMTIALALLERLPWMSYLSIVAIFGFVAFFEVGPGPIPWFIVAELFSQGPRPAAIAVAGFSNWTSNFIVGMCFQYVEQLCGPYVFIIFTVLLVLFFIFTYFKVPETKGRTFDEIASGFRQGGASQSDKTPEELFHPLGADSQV

T2: Nluc-GLUT1 (mouse, UniProt P17809 1-492)
T2 construct: facilitated glucose transporter GLUT1 (SLC2A1), mouse Glut1 open reading frame; BRET donor; also called GLUT1 fused to Nluc at the N-terminus; not shown: Nanoluciferase (Nluc), N-terminal, kept
T2 sequence (looked up): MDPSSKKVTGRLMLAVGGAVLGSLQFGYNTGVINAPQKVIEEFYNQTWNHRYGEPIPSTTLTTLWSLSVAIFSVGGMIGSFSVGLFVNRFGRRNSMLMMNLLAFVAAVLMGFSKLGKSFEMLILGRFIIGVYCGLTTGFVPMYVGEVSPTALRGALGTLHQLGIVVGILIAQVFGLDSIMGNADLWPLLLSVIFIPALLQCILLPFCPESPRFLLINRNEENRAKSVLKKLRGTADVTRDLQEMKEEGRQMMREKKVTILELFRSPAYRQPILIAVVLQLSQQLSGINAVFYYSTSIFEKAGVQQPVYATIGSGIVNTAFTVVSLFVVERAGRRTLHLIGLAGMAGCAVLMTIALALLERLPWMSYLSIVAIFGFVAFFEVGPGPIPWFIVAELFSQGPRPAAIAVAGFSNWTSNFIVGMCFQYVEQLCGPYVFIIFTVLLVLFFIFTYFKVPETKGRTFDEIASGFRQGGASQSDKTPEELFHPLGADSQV

T3: GLUT1-Nluc (mouse) (UniProt P17809)
T3 sequence: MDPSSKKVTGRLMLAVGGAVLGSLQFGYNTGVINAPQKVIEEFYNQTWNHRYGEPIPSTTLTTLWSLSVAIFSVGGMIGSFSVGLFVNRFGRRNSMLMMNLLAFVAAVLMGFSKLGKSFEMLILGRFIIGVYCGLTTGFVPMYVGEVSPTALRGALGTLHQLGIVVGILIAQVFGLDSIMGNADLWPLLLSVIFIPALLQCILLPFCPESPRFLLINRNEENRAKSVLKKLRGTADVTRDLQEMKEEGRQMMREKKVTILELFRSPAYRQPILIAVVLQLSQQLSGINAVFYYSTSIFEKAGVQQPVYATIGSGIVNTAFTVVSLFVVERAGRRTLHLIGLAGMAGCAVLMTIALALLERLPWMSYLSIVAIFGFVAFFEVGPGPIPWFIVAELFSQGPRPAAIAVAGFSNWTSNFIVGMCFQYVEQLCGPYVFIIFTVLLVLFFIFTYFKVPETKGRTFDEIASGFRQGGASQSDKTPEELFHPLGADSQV


What was measured:
[1] = target: T1, mCherry-GLUT1-Nluc dual fusion protein (mouse); assay: FRET or BRET; unlabeled competition assay in live 293FT cells: increasing amounts of unlabeled GLUT1 co-transfected with the donor and acceptor fusion proteins or with the dual fusion protein
Nluc-GLUT1 [2] = target: T2, Nluc-GLUT1; assay: as above
Nluc-GLUT1 [3] = target: T2, Nluc-GLUT1; assay: FRET or BRET; live 293FT-HEK cells transiently co-transfected (in cis) with increasing amounts of Nluc-GLUT1 and mCherry-GLUT1; absolute BRET ratio, compared with a 1:1 mix of separately transfected cells (trans)
Nluc-GLUT1 [4] = target: T2, Nluc-GLUT1; assay: condition: only cell membrane complexes disrupted with detergents; FRET or BRET; emission spectrum of Nluc-Glut1 with doxycycline-inducible mCherry-Glut1 (monochromator), cell membrane complexes disrupted with detergents
GLUT1-Nluc (mouse) = target: T3, GLUT1-Nluc (mouse); assay: FRET or BRET; saturation BRET in live 293FT cells: fixed amount of Nluc donor fusion, increasing amounts of mCherry acceptor fusion, transient transfection; corrected BRET against acceptor:donor plasmid ratio, fit to standard binding curves
Nluc-GLUT1 [5] = target: T2, Nluc-GLUT1; assay: as above

| Binder | binding [1] | binding (Nluc-GLUT1 [2]) | binding (Nluc-GLUT1 [3]) | binding (Nluc-GLUT1 [4]) | binding (GLUT1-Nluc (mouse)) | binding (Nluc-GLUT1 [5]) |
| --- | --- | --- | --- | --- | --- | --- |
| mCherry-GLUT1 (natural protein, mouse, UniProt P17809 1-492, looked up, facilitated glucose transporter GLUT1 (SLC2A1), mouse Glut1 open reading frame; BRET acceptor; also called GLUT1 fused to mCherry at the N-terminus; not shown: mCherry, N-terminal, kept) MDPSSKKVTGRLMLAVGGAVLGSLQFGYNTGVINAPQKVIEEFYNQTWNHRYGEPIPSTTLTTLWSLSVAIFSVGGMIGSFSVGLFVNRFGRRNSMLMMNLLAFVAAVLMGFSKLGKSFEMLILGRFIIGVYCGLTTGFVPMYVGEVSPTALRGALGTLHQLGIVVGILIAQVFGLDSIMGNADLWPLLLSVIFIPALLQCILLPFCPESPRFLLINRNEENRAKSVLKKLRGTADVTRDLQEMKEEGRQMMREKKVTILELFRSPAYRQPILIAVVLQLSQQLSGINAVFYYSTSIFEKAGVQQPVYATIGSGIVNTAFTVVSLFVVERAGRRTLHLIGLAGMAGCAVLMTIALALLERLPWMSYLSIVAIFGFVAFFEVGPGPIPWFIVAELFSQGPRPAAIAVAGFSNWTSNFIVGMCFQYVEQLCGPYVFIIFTVLLVLFFIFTYFKVPETKGRTFDEIASGFRQGGASQSDKTPEELFHPLGADSQV |  | binds | binds | no binding | binds | binds |
| GLUT1 with the mCherry acceptor fused to the C-terminus (protein, UniProt P17809 1-492) MDPSSKKVTGRLMLAVGGAVLGSLQFGYNTGVINAPQKVIEEFYNQTWNHRYGEPIPSTTLTTLWSLSVAIFSVGGMIGSFSVGLFVNRFGRRNSMLMMNLLAFVAAVLMGFSKLGKSFEMLILGRFIIGVYCGLTTGFVPMYVGEVSPTALRGALGTLHQLGIVVGILIAQVFGLDSIMGNADLWPLLLSVIFIPALLQCILLPFCPESPRFLLINRNEENRAKSVLKKLRGTADVTRDLQEMKEEGRQMMREKKVTILELFRSPAYRQPILIAVVLQLSQQLSGINAVFYYSTSIFEKAGVQQPVYATIGSGIVNTAFTVVSLFVVERAGRRTLHLIGLAGMAGCAVLMTIALALLERLPWMSYLSIVAIFGFVAFFEVGPGPIPWFIVAELFSQGPRPAAIAVAGFSNWTSNFIVGMCFQYVEQLCGPYVFIIFTVLLVLFFIFTYFKVPETKGRTFDEIASGFRQGGASQSDKTPEELFHPLGADSQV |  |  |  |  |  | binds weakly |

Results, then the binder that gave them:

| binding [1] | binding (Nluc-GLUT1 [2]) | binding (Nluc-GLUT1 [3]) | binding (Nluc-GLUT1 [4]) | binding (GLUT1-Nluc (mouse)) | binding (Nluc-GLUT1 [5]) | Binder |
| --- | --- | --- | --- | --- | --- | --- |
| binds |  |  |  |  |  | mCherry-GLUT1-Nluc dual fusion protein (protein, UniProt P17809 1-492) MDPSSKKVTGRLMLAVGGAVLGSLQFGYNTGVINAPQKVIEEFYNQTWNHRYGEPIPSTTLTTLWSLSVAIFSVGGMIGSFSVGLFVNRFGRRNSMLMMNLLAFVAAVLMGFSKLGKSFEMLILGRFIIGVYCGLTTGFVPMYVGEVSPTALRGALGTLHQLGIVVGILIAQVFGLDSIMGNADLWPLLLSVIFIPALLQCILLPFCPESPRFLLINRNEENRAKSVLKKLRGTADVTRDLQEMKEEGRQMMREKKVTILELFRSPAYRQPILIAVVLQLSQQLSGINAVFYYSTSIFEKAGVQQPVYATIGSGIVNTAFTVVSLFVVERAGRRTLHLIGLAGMAGCAVLMTIALALLERLPWMSYLSIVAIFGFVAFFEVGPGPIPWFIVAELFSQGPRPAAIAVAGFSNWTSNFIVGMCFQYVEQLCGPYVFIIFTVLLVLFFIFTYFKVPETKGRTFDEIASGFRQGGASQSDKTPEELFHPLGADSQV |
| binds | binds |  |  |  |  | unlabeled GLUT1 (protein, UniProt P17809 1-492) MDPSSKKVTGRLMLAVGGAVLGSLQFGYNTGVINAPQKVIEEFYNQTWNHRYGEPIPSTTLTTLWSLSVAIFSVGGMIGSFSVGLFVNRFGRRNSMLMMNLLAFVAAVLMGFSKLGKSFEMLILGRFIIGVYCGLTTGFVPMYVGEVSPTALRGALGTLHQLGIVVGILIAQVFGLDSIMGNADLWPLLLSVIFIPALLQCILLPFCPESPRFLLINRNEENRAKSVLKKLRGTADVTRDLQEMKEEGRQMMREKKVTILELFRSPAYRQPILIAVVLQLSQQLSGINAVFYYSTSIFEKAGVQQPVYATIGSGIVNTAFTVVSLFVVERAGRRTLHLIGLAGMAGCAVLMTIALALLERLPWMSYLSIVAIFGFVAFFEVGPGPIPWFIVAELFSQGPRPAAIAVAGFSNWTSNFIVGMCFQYVEQLCGPYVFIIFTVLLVLFFIFTYFKVPETKGRTFDEIASGFRQGGASQSDKTPEELFHPLGADSQV |
